Here are results for one substance from paper PMC12512898.

Sequences of proteins named here, by UniProt entry; tags and fusion partners are left off.
UniProt Q6P5F9: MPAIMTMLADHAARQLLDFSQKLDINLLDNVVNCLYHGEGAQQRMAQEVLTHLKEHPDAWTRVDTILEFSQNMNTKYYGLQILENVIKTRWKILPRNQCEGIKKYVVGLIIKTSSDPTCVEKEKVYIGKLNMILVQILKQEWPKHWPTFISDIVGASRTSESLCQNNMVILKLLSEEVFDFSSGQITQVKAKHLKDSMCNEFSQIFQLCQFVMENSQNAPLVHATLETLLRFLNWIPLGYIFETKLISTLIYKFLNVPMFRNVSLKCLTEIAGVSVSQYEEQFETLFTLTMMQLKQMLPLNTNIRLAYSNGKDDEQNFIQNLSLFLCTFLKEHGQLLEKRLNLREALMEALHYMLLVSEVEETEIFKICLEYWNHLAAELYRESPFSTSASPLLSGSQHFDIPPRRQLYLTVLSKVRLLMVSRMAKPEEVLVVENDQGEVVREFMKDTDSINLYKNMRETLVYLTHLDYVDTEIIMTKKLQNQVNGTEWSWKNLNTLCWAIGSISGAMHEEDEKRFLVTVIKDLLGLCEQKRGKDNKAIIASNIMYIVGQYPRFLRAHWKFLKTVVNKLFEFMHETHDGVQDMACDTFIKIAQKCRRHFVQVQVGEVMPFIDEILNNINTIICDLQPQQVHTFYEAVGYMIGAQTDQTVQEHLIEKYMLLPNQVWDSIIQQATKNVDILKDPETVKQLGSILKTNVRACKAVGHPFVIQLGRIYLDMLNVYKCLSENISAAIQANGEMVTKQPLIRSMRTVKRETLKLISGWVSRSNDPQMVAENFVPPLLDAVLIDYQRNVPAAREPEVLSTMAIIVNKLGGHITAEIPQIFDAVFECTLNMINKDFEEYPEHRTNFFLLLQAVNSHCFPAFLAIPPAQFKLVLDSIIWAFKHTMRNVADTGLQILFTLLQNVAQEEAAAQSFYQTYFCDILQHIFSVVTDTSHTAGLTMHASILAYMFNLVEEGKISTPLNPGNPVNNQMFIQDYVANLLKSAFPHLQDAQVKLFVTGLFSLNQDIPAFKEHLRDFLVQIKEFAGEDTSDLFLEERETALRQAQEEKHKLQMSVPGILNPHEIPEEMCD
UniProt Q04207: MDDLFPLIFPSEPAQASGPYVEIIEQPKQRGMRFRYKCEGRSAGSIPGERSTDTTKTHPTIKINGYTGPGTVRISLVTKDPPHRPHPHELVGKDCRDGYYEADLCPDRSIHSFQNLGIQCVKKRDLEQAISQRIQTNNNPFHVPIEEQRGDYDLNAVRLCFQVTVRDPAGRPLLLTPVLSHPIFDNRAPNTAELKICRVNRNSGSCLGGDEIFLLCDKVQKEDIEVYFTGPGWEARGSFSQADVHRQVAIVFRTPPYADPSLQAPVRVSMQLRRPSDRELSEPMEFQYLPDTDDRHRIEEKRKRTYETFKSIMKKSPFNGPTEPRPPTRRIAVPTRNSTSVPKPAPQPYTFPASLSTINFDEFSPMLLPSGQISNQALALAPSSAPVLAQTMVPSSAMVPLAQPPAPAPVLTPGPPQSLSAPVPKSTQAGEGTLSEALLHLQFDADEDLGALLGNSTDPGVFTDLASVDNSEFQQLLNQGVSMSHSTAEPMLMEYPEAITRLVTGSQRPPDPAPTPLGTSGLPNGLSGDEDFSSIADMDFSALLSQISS

These are yes or no findings as the source states them, for the method shown. Binding seen in cells or lysates may run through a third protein. Some binding calls cover weakened binding; strength is not graded here.

The target of the assay is exportin-1 (CRM1) (mouse (endogenous in primary tail fibroblasts)) (UniProt Q6P5F9). As to the kind of experiment: proximity ligation; Duolink in situ PLA on fixed, permeabilised WT and Hmox1 KO mouse fibroblasts not stimulated with TNFα; anti-p65 (mouse) and anti-CRM1 (rabbit) primary antibodies; cells untreated or treated with olaparib (100 nM, 24 h); nuclear PLA signal quantified.

For “NF-κB p65 subunit (from UniProt Q04207 1-549)”, the binding result is “binds”.
